The values are deposited in ChEMBL (CHEMBL3988442, “University of Dundee, Small-Polar-MMV Screening Library” (2021)).

T. brucei: 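Whole-parasite assay of Trypanosoma brucei over 72 hours; the read-out is not stated. Compounds at 30 µM. Direction is inferred from retests: higher values go with stronger inhibition. Values scatter widely below zero; nearly all retest evidence comes from the higher of the two concentrations used. Size under these conditions: about 64,000 compounds, about 940 of them at 50% or above in at least one test.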
Toxoplasma: 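Assay of Toxoplasma gondii numbers, read through their beta-galactosidase reporter with a colour substrate. Tested at 10 µM. Higher reads as fewer parasites (inferred from which compounds were picked for retests). About 67,000 compounds were tested under these conditions; 0.38% (about 260) showed 50% or more at least once.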

Values are the deposited “Percent Effect”, in %.
How 0% and 100% were set is not recorded. Most values in the screen are low, and negative values occur.
Compounds were drawn at random from those tested, without regard to their results.
A dash means the value is not listed here; it may have been measured.

| compound | T. brucei | Toxoplasma |
|---|---|---|
| `CCC(=O)N1CCN(Cc2cc(-c3ccncc3)nn2C)CC1` | -21.95% | 8.776% |
| `CCC[C@H]1CN(C2CCOCC2)C[C@@H]1NC(=O)CCn1ccnc1C` | -61.64% | -4.043% |
| `CCc1ncc(CN2CCN(c3cc(NC4CC4)nc(N)n3)CC2)cn1` | -12.38% | -6.564% |
| `[H][C@]12CC[C@]([H])(CN(S(=O)(=O)c3cn(C)cn3)C1)N(Cc1ccccn1)C2` | -32.48% | -20.99% |
| `O=C(c1ccc[nH]1)N1CCc2nnc(Cn3cccc3)n2CC1` | -12.41% | 15.52% |
| `O=C(c1ccco1)N1CCCC2(CCN(CCN3CCCC3)C2=O)C1` (stereo unspecified) | -30.56% | 4.641% |
| `O=c1[nH]nc(CNc2cncc(Br)c2)[nH]1` | -10.61% | -0.8999% |
| `Cc1nc(C(=O)N2CCC(c3nnc(Cn4ccnc4)n3C)CC2)cs1` | -37.43% | -11.27% |
| `Cn1ccc(C(=O)NCc2ccc(N3CCOCC3)nc2)cc1=O` | 14.37% | 3.774% |
| `CN1CCN(c2ccccc2CNC(=O)Cc2ccccc2F)CC1` | -5.131% | 3.121% |
| `CC(=O)c1c(F)cccc1N1CCC(C(N)=O)CC1` | -41.03% | 4.849% |
| `O=C(O)C(F)(F)F.[H][C@@]12CN(Cc3cnn(C)c3)CCO[C@]1([H])CN(S(=O)(=O)CC)C2` | -21.32% | 7.788% |
| `COc1ccc(C(=O)NS(=O)(=O)c2cncc(Br)c2)c(OC)c1` | -21.56% | 5.028% |
| `O=C(O)C(F)(F)F.[H][C@@]12CCCO[C@]1([H])[C@H](N(C)Cc1cncnc1)CN2C(=O)c1ccco1` | -35.75% | -32.88% |
| `O=C(c1ccc(N2CCCC2)nn1)N1CCc2ccccc21` | 1.635% | -12.23% |
| `CCOC(=O)NC(=O)CSC(C)c1ccccc1F` (stereo unspecified) | -17.6% | - |
| `O=C(O)C(F)(F)F.[H][C@@]12CCN(C3CCOC3)[C@@]1([H])CC(=O)N2Cc1csc(C)n1` (stereo partly specified) | -22.37% | -30.91% |
| `CN(Cc1cc(Br)cn1C)C(=O)c1cccnc1` | -39.03% | 19.42% |
| `COc1c(C2CCCN2CC(=O)Nc2nc(C)cs2)c(C)nn1C` (stereo unspecified) | 26.96% | 4.631% |
| `CCN(CC1CN(CCc2ccccn2)CCO1)c1cccnn1` (stereo unspecified) | -13.49% | 1.542% |
| `CCOc1cc(CN[C@@H]2COC[C@H]2Cc2cc(C)no2)ccc1O.O=C(O)CC(O)(CC(=O)O)C(=O)O` | 6.676% | -11.11% |
| `CS(=O)(=O)N[C@@H]1CN(Cc2ccc3ncccc3c2)C[C@H]1O` | -1.334% | -6.438% |
| `O=C(O)C(F)(F)F.O=C(O)C(F)(F)F.O=S1(=O)c2ccccc2C2(CCN(Cc3cccnc3)C2)N1CC1CC1` (stereo unspecified) | 43.08% | -5.639% |
| `Cc1ccc(C)c2c1NC(=O)C2CC(=O)O` (stereo unspecified) | -10.31% | -0.2596% |
| `O=C(O)C(F)(F)F.O=C(O)C(F)(F)F.[H][C@@]12CCN(Cc3cccc(C)n3)[C@@]1([H])CCN2Cc1cccs1` | -1.434% | -21.15% |
| `Cn1cc(CN2CC[C@H](O)[C@@H](n3ccc(=O)[nH]c3=O)CC2)cn1` | -9.464% | 5.679% |
| `O=C(NCc1cccnc1-n1cccn1)C1CC(=O)N(CC2CC2)C1` (stereo unspecified) | 1.158% | -7.029% |
| `O=C(CSc1nc2nncc-2c(O)n1-c1ccccc1)N1CCOCC1` | -21.73% | 21.03% |
| `CN(C)C(=O)N1CCn2cc(CNC(=O)CC3CC3)nc2C1` | -10.54% | 2.448% |
| `[H][C@]1([C@H](O)c2ccc(NC(=O)c3ccccc3OC)cc2)COCC(=O)N1` | -23.14% | 7.164% |
| `O=C(CN1CCCC(CO)C1)NCCOc1cccc(Cl)c1` (stereo unspecified) | -16.58% | 4.003% |
| `CC(C)Cn1c(=O)nc2n1C(=O)N(c1ccc(F)cc1)C2` | -25.18% | -40.12% |
| `O=C(O)C(F)(F)F.O=C(O)C(F)(F)F.O=C(O)c1c(-c2ccncc2)ncc2c1CCN(C1CCOC1)C2` (stereo unspecified) | -65.13% | 0.9169% |
| `CN(C)C(=O)c1cccc(NC(=O)Cc2cc(F)ccc2F)n1` | -29.58% | 1.546% |
| `N#Cc1cc(F)c(NCCc2ccc(F)cc2)c(F)c1` | 2.935% | 1.903% |
| `CN1CCOCC12CCN(C(=O)C1CCC1)CC2.O=C(O)C(F)(F)F` | 3.821% | -4.489% |
| `CCN1CCC(CC(=O)NCC(O)c2cccc(OC)c2)CC1` (stereo unspecified) | -21.66% | -10.51% |
| `CN(C)[C@@H]1CCN(C(=O)c2ccco2)[C@H]1Cc1cnn(C)c1.O=C(O)C(F)(F)F` | -25.93% | -2.024% |
| `C[C@@H]1CN(c2nc(N)nc3c2CCC3)CC[C@@]1(O)C1CCC1` | 12.29% | 7.759% |
| `O=C(c1ccc(F)cc1F)N(CC(F)(F)F)C1CCOCC1` | -10.39% | 19.33% |
| `N#CCSCCCN1CCCC(C(=O)N2CCCCCC2)C1` (stereo unspecified) | -10.81% | -4.038% |
| `CCC(=O)Nc1ccc2c(ccn2CCOC)c1` | 30.95% | 1.684% |
| `CCN(Cc1cccnc1)CC1CCCO1` (stereo unspecified) | -88.26% | 0% |
| `[H][C@@]12CS(=O)(=O)C[C@]1([H])N(Cc1nc3ccccc3[nH]1)CCN2C` | -26.38% | -1.542% |
| `O=C(O)C(F)(F)F.[H][C@@]12CCN(c3ncccn3)C[C@]1([H])[C@H](C(=O)NC(C)C)CCO2` | 15.74% | 3.571% |
| `O=C(O)C(F)(F)F.[H][C@]12CC[C@@]3(N=C(CC)NC3=O)[C@@]1([H])CN(Cc1ccccc1F)C2` | - | -8.615% |
| `Cc1nsc(C(=O)NCCc2ccc(S(N)(=O)=O)cc2)n1` | -11.21% | -4.204% |
| `[H][C@]12CCN(c3ccc(Cl)cn3)C[C@]1(COC)CC[C@@H](N1CCOCC1)C2` | -1.577% | -6.522% |
| `CCOC(=O)NC(CNC(=O)c1cc(Cl)ccn1)CC(C)C` (stereo unspecified) | -45.96% | 5.739% |
| `Cc1cc(N)n(-c2ccc3nnc(C)n3n2)n1` | -10.89% | 5.68% |
| `COc1ncccc1NC(=O)N(Cc1ccc(C(N)=O)cc1)C1CC1` | - | 7.993% |
| `Cc1cc(NC(=O)NCC(C)O)n(C)n1` (stereo unspecified) | 14.99% | -8.61% |
| `CN(C)C1COC2(CCN(Cc3ccncc3)CC2)C1` (stereo unspecified) | 14.27% | 0.2973% |
| `CCNc1ncc(C(=O)NCCc2csc(CSC)n2)cn1` | 4.86% | -2.582% |
| `Cc1noc(C)c1CNC(=O)N(C1CC1)C(C)c1ccco1` (stereo unspecified) | -24.56% | -7.856% |
| `CN(CCC(=O)NC1CC1)Cc1ccc(Cl)s1` | 10.3% | 0.6952% |
| `O=C1CC2(CCCCC2)C(=O)N1CC(O)COCc1ccccc1F` (stereo unspecified) | 8.677% | 11.29% |
| `COCc1cnc2n1CCN(C(=O)c1cnc3ccccc3c1)C2C` (stereo unspecified) | -12.37% | 7.133% |
| `CCOC(=O)CN1C(=O)CN(S(C)(=O)=O)CCC(OC)c2ccccc21` (stereo unspecified) | -10.78% | -33.95% |
| `COc1cccc(-c2noc(-c3ccc(NCC4CC4)nc3)n2)c1OC` | 64.24% | -0.3304% |
| `COC(=O)c1cccc(NCC(=O)NC(N)=O)c1` | 1.435% | -0.6818% |
| `Cc1ccc(CNC(=O)N(C)Cc2ccc([S+](C)[O-])cc2)s1` (stereo unspecified) | -28.42% | -2.023% |
| `OC1(CN2CCCCC2)CCN(Cc2c[nH]c(CC3CCCC3)n2)C1` (stereo unspecified) | 19.85% | 2.464% |
| `O=c1n(CCSCc2ccccc2F)nc2ccccn12` | 5.876% | 0.886% |
| `Cc1nc(Cn2cc(C#N)c(=O)c3ccccc32)no1` | -49.42% | -12.3% |
| `Cc1cc(NCc2ccc(O)cc2)n2nc(C)cc2n1` | 9.404% | -2.314% |
| `O=C(O)C(F)(F)F.O=C(O)C(F)(F)F.O=C(O)C(F)(F)F.[H][C@@]12CCN(Cc3cccnc3)[C@@]1([H])CCN2Cc1ccc2c(c1)OCO2` | -12.94% | -8.818% |
| `CC(C)c1nc(C2CCCN(C(=O)CCn3ccnc3)C2)no1` (stereo unspecified) | -2.764% | -1.781% |
| `OC1(CNCCCN2CCCc3ccccc32)CNCCOC1` (stereo unspecified) | 12.14% | 4.433% |
| `Cc1nc(C2CCN(S(C)(=O)=O)CC2)nc(N2CCCC2)c1C` | 10.13% | 2.584% |
| `O=C(Cn1nc(C(F)(F)F)c(Cl)c1C1CC1)NN1CCOCC1` | -17.9% | -2.294% |
| `CC(=O)N(C)CC(=O)NCC1(c2c(F)cccc2F)CCCC1` | -13% | 11.88% |
| `CCOc1ncccc1CNC(=O)Nc1ccc(CC)cc1` | - | 3.665% |

Repeated from the top, 7 entries:

CCC(=O)N1CCN(Cc2cc(-c3ccncc3)nn2C)CC1 read T. brucei: -21.95%; Toxoplasma: 8.776%.
CCC[C@H]1CN(C2CCOCC2)C[C@@H]1NC(=O)CCn1ccnc1C read T. brucei: -61.64%; Toxoplasma: -4.043%.
CCc1ncc(CN2CCN(c3cc(NC4CC4)nc(N)n3)CC2)cn1 read T. brucei: -12.38%; Toxoplasma: -6.564%.
[H][C@]12CC[C@]([H])(CN(S(=O)(=O)c3cn(C)cn3)C1)N(Cc1ccccn1)C2 read T. brucei: -32.48%; Toxoplasma: -20.99%.
O=C(c1ccc[nH]1)N1CCc2nnc(Cn3cccc3)n2CC1 read T. brucei: -12.41%; Toxoplasma: 15.52%.
O=C(c1ccco1)N1CCCC2(CCN(CCN3CCCC3)C2=O)C1 (stereo unspecified) read T. brucei: -30.56%; Toxoplasma: 4.641%.
O=c1[nH]nc(CNc2cncc(Br)c2)[nH]1 read T. brucei: -10.61%; Toxoplasma: -0.8999%.